One experiment addresses T1, HA-RIG-I (human) (UniProt O95786).
T1 sequence: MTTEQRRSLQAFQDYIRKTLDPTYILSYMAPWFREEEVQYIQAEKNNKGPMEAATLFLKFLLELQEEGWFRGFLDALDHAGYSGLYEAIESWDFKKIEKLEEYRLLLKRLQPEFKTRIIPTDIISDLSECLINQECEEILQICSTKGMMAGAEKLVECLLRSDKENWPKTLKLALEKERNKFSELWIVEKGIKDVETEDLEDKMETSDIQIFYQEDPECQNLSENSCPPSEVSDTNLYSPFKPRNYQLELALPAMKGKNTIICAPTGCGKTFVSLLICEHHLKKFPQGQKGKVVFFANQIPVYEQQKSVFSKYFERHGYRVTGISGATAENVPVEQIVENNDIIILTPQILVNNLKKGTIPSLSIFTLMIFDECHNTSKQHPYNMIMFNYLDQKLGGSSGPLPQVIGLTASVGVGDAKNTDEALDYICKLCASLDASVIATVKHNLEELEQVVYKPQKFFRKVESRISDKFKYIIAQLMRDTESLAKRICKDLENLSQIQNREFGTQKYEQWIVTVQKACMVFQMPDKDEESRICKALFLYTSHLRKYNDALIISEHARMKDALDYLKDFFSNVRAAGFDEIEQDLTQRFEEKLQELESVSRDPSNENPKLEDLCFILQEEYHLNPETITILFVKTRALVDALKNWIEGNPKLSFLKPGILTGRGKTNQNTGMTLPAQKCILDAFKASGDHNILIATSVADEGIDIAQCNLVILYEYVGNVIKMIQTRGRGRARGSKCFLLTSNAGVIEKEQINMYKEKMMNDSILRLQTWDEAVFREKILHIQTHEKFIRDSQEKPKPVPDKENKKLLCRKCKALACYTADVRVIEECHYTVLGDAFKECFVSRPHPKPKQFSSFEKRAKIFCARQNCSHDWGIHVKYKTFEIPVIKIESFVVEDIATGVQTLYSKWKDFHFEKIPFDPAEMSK
The experiment in a line: co-IP; 293T cells transfected with expression plasmids, uninfected or infected with SeV; lysis in 1% Triton, 20 mM Tris-HCl pH 7.5, 150 mM NaCl, 1 mM EDTA; protein G/A-Sepharose beads with the indicated antibodies overnight at 4°C; immunoblot. In general terms: Immunoblotting shows a protein as a band on a membrane.

The target in experiment [1] is T2, Retinoic acid-inducible gene I (RIG-I), full length, yeast two-hybrid bait (human) (UniProt O95786).
T2 sequence: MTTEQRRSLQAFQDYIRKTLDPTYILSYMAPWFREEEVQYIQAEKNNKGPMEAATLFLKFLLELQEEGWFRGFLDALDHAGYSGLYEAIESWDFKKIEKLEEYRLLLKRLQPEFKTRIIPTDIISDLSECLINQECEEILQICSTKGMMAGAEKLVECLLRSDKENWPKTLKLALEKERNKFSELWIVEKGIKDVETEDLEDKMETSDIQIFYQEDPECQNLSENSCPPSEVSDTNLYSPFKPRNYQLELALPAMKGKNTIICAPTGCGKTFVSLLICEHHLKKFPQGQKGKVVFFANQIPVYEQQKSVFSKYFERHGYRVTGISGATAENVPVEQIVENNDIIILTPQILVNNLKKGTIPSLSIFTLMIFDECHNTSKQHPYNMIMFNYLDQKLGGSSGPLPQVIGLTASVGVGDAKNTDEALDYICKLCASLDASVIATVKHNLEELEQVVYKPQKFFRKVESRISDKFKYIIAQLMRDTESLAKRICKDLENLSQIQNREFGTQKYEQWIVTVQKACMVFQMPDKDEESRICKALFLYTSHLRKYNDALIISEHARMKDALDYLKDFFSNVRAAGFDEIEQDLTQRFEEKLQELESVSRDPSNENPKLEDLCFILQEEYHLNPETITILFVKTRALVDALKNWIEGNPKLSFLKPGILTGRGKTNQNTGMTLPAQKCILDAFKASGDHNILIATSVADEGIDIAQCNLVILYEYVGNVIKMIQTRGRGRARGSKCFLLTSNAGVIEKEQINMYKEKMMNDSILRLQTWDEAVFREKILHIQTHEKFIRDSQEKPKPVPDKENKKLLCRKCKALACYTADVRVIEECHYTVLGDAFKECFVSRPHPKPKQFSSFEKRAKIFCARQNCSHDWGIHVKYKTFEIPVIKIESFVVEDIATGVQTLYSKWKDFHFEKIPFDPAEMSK
The experiment in a line: two-hybrid; large-scale yeast two-hybrid screen with full-length RIG-I as bait protein.

This is an account of results in publication PMC10577479.

No constants are given. Whether binding was seen depends on the method and setting. For some assays here: Binding seen in cells or lysates may run through a third protein. Some results given as binding are weak or reduced against the parent protein; the word gives no strength. For some assays here: Where a sequence is shown, tags or fusion partners need not be part of it.

B1: FLAG-tagged ZNF205 (aa300-554), C-terminal zinc finger domain (domain or fragment, UniProt O95201 300-554)
chain: DSEVGRKSYRCEQCGKGFSWHSHLVTHRRTHTGEKPYACTDCGKRFGRSSHLIQHQIIHTGEKPYTCPACRKSFSHHSTLIQHQRIHTGEKPYVCDRCAKRFTRRSDLVTHQGTHTGAKPHKCPICAKCFTQSSALVTHQRTHTGVKPYPCPECGKCFSQRSNLIAHNRTHTGEKPYHCLDCGKSFSHSSHLTAHQRTHRGVRPYACPLCGKSFSRRSNLHRHEKIHTTGPKALAMLMLGAAAAGALATPPPAPT
Turning to B1, in the experiment with HA-RIG-I (human), the binding result is recorded as “binds”.

B2: Zinc finger protein 205 (ZNF205), yeast two-hybrid prey (protein, UniProt O95201 1-554)
chain: MSADGGGIQDTQDKETPPEVPDRGHPHQEMPSKLGEAVPSGDTQESLHIKMEPEEPHSEGASQEDGAQGAWGWAPLSHGSKEKALFLPGGALPSPRIPVLSREGRTRDRQMAAALLTAWSQMPVTFEDVALYLSREEWGRLDHTQQNFYRDVLQKKNGLSLGFPFSRPFWAPQAHGKGEASGSSRQAGDEKEWRGACTGAVEVGQRVQTSSVAALGNVKPFRTRAGRVQWGVPQCAQEAACGRSSGPAKDSGQPAEPDRTPDAAPPDPSPTEPQEYRVPEKPNEEEKGAPESGEEGLAPDSEVGRKSYRCEQCGKGFSWHSHLVTHRRTHTGEKPYACTDCGKRFGRSSHLIQHQIIHTGEKPYTCPACRKSFSHHSTLIQHQRIHTGEKPYVCDRCAKRFTRRSDLVTHQGTHTGAKPHKCPICAKCFTQSSALVTHQRTHTGVKPYPCPECGKCFSQRSNLIAHNRTHTGEKPYHCLDCGKSFSHSSHLTAHQRTHRGVRPYACPLCGKSFSRRSNLHRHEKIHTTGPKALAMLMLGAAAAGALATPPPAPT
In the case of B2, the binding result in experiment [1] is “binds”.
